# Experimental data from the supplement of paper PMC9135407.
# Values joined by “and” are separate entries in the source; they are usually repeats but may differ in a detail not shown here. Identical values can stand only once. Counter-ions that a name gives are not always drawn. ± gives the standard deviation of the averaged measurements. Some of the results follow. Baselines shift from plate to plate; read single values as rough.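 Culture-activated primary human stellate myofibroblasts, where regained lipid droplets signal inactivation. Value: share of Hoechst-counted cells above a per-plate Bodipy cutoff, in duplicate wells, with DMSO negative and nortriptyline positive controls on each plate. Hits: a control-normalized score above the plate's top-tenth-percentile nortriptyline wells, or one of a plate's three best wells. Final well concentrations are not given.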
# Tested on: primary human hepatic stellate cells (donor 1)
# Test: percent Bodipy-positive cells; higher = more lipid droplet accumulation
# Settings: 48 h
# [1] = library stock concentration: 3.33 mM
# [2] = library stock concentration: 10 mM
# [3] = library stock concentration: 1 mM
# [4] = library stock concentration: 80 uM
# [5] = library stock concentration: 400 uM
# [6] = library stock concentration: 2 mM
structure (smiles),measurement,setting,value
Nc1ccc(/N=N/c2ccccc2)c(N)n1 [Phenazopyridine HCl],percent Bodipy-positive cells,[1],5.15 ± 1.2%
same,percent Bodipy-positive cells,[2],11.8 ± 1.6%
Nc1ccc(/N=N/c2ccccc2)c(N)n1 [Phenazopyridine hydrochloride],percent Bodipy-positive cells,,3.66 ± 0.82%
same,percent Bodipy-positive cells,library stock concentration: 8 mM,3.51 ± 2.6%
same,percent Bodipy-positive cells,[2],10.2 ± 3.7%
C[C@H](N[C@@H](CCc1ccccc1)C(=O)O)C(=O)N1Cc2ccccc2C[C@H]1C(=O)O,percent Bodipy-positive cells,[2],35.1 ± 7.3%
N[C@@H](CO)c1ccccc1 [(R)-(-)-2-Phenylglycinol],percent Bodipy-positive cells,[3],18.3 ± 14%
C=CCNc1ncnc2ccc(Br)cc12,percent Bodipy-positive cells,[2],27.4 ± 6%
OCC(CO)N[C@H]1C[C@](O)(CO)[C@@H](O)[C@H](O)[C@H]1O [Voglibose],percent Bodipy-positive cells,[1],9.39 ± 1.3%
same,percent Bodipy-positive cells,[2],15.5% and 6.49%
CC(C)=CCC/C(C)=C/CC/C(C)=C/CSc1ccccc1C(N)=O [Farnesyl Thiosalicylic Acid Amide],percent Bodipy-positive cells,[3],13.3 ± 0.36%
CCCCC(=O)N(Cc1ccc(-c2ccccc2-c2nnn[nH]2)cc1)[C@H](C(=O)O)C(C)C,percent Bodipy-positive cells,[2],7.05 ± 1.1%
CCCCC(=O)N(Cc1ccc(-c2ccccc2-c2nnn[nH]2)cc1)[C@H](C(=O)O)C(C)C [Valsartan],percent Bodipy-positive cells,[1],12.5 ± 1.8%
COc1cc(Nc2ncc3c(n2)-c2ccc(Cl)cc2C(c2c(F)cccc2OC)=NC3)ccc1C(=O)O [Alisertib (MLN8237)],percent Bodipy-positive cells,[1],11.2 ± 1.5%
same,percent Bodipy-positive cells,[2],20.8 ± 3.7%
COc1cc(Nc2ncc3c(n2)-c2ccc(Cl)cc2C(c2c(F)cccc2OC)=NC3)ccc1C(=O)O [Alisertib],percent Bodipy-positive cells,[4],10.6 ± 1.5%
same,percent Bodipy-positive cells,[5],9.13 ± 1%
same,percent Bodipy-positive cells,[6],6.3 ± 2.9%
same,percent Bodipy-positive cells,[2],7.76 ± 1.5%
OC(CCN1CCCCC1)(c1ccccc1)c1ccccc1 [Pridinol methanesulfonate],percent Bodipy-positive cells,[2],45.2 ± 24%
OC(CCN1CCCCC1)(c1ccccc1)c1ccccc1 [Pridinol methanesulfonate salt],percent Bodipy-positive cells,,21.8 ± 2.2%
CC(=Nc1ccccc1N)c1c(C)cc(=O)n(O)c1O,percent Bodipy-positive cells,[2],8.04 ± 4.8%
CCCCC[C@](C)(O)/C=C/[C@H]1C(=O)C[C@H](O)[C@@H]1C/C=C\CCCC(=O)O [15(S)-15-methyl Prostaglandin D2],percent Bodipy-positive cells,[3],12.5 ± 3.1%
CCc1ccc(/C=C2/SC(=S)NC2=O)cc1,percent Bodipy-positive cells,[1],30.1 ± 7.8%
same,percent Bodipy-positive cells,[2],28.3% and 33.2%
CC1(COc2ccc3c(c2)ncn3-c2ccc3cccc(N4CCC(N)CC4)c3n2)COC1,percent Bodipy-positive cells,[1],97.5 ± 1%
CCN(CC)CCNC(=O)c1cc(Br)c(N)cc1OC [Bromopride],percent Bodipy-positive cells,,11.2 ± 0.71%
same,percent Bodipy-positive cells,[2],34 ± 9.8%
"O=c1cc(N2CCOCC2)oc2c(-c3ccccc3)cccc12 [LY-294,002 hydrochloride]",percent Bodipy-positive cells,[2],26.5 ± 1.9%
O=c1cc(N2CCOCC2)oc2c(-c3ccccc3)cccc12,percent Bodipy-positive cells,[3],6.6 ± 2%
same,percent Bodipy-positive cells,[1],7.3% and 8.17%
same,percent Bodipy-positive cells,[2],11.9% and 6.6%
same,percent Bodipy-positive cells,library stock concentration: 16.3 mM,15.2 ± 9.9%
COc1cccc(-c2cc(F)ccc2C2Cc3nc(N)nc(C)c3C(=O)N2)n1 (stereo unspecified),percent Bodipy-positive cells,[1],88.95 ± 0.25%
CCOC(N)=O [Urethane],percent Bodipy-positive cells,[2],39.6 ± 1.5%
same,percent Bodipy-positive cells,library stock concentration: 22.4 mM,10.4 ± 0.51%
O=C(O)CCCCCCC1C(=O)NC(=O)N1CCC(O)C1CCCCC1 (stereo unspecified),percent Bodipy-positive cells,[3],7.87% and 8.07%
O=C1c2cccc(O)c2C(=O)c2c(O)cccc21 [Danthron],percent Bodipy-positive cells,library stock concentration: 8.3 mM,5.27 ± 0.38%
"Cc1c(C(=O)Nc2ccc(N3C[C@@H](C)O[C@@H](C)C3)nc2)cccc1-c1ccc(OC(F)(F)F)cc1 [LDE225 (NVP-LDE225,Erismodegib)]",percent Bodipy-positive cells,[1],28 ± 8%
same,percent Bodipy-positive cells,[2],93.8 ± 3.9%
Nc1cc(C(F)(F)F)c(-c2cc(N3CCOCC3)nc(N3CCOCC3)n2)cn1,percent Bodipy-positive cells,[4],13.3 ± 0.49%
same,percent Bodipy-positive cells,[5],9.06 ± 1.6%
same,percent Bodipy-positive cells,[6],6.1 ± 0.39%
same,percent Bodipy-positive cells,[2],25.3 ± 3.6%
"Nc1cc(C(F)(F)F)c(-c2cc(N3CCOCC3)nc(N3CCOCC3)n2)cn1 [BKM120 (NVP-BKM120, Buparlisib)]",percent Bodipy-positive cells,[1],11 ± 0.12%
same,percent Bodipy-positive cells,[2],36.6 ± 12%
CC(C)NNC(=O)c1ccncc1 [Iproniazid phosphate],percent Bodipy-positive cells,[2],26.5 ± 10%
CC(C)NNC(=O)c1ccncc1 [Iproniazide phosphate],percent Bodipy-positive cells,,20.4 ± 0.7%
CC(C)NNC(=O)c1ccncc1 [Iproniazid sulfate],percent Bodipy-positive cells,[2],17.5 ± 8.6%
CSCC[C@H](NC(=O)[C@H](Cc1c[nH]c2ccccc12)NC(=O)CCNC(=O)OC(C)(C)C)C(=O)N[C@@H](CC(=O)O)C(=O)N[C@@H](Cc1ccccc1)C(N)=O,percent Bodipy-positive cells,[2],30.6 ± 2.3%
Cc1ccc(Sc2cncc3sc(C(N)=O)cc23)cc1,percent Bodipy-positive cells,[1],34.1 ± 9.5%
CNCCCN1c2ccccc2CCc2ccccc21.Cl [Desipramine hydrochloride],percent Bodipy-positive cells,[2],98.73 ± 0.44%
CCCCC[C@@H](O)/C=C/[C@H]1[C@H](C/C=C\CCCC(=O)O)[C@H](O)C[C@@H]1O [ent-Prostaglandin F2.alpha.],percent Bodipy-positive cells,[3],8.03 ± 3.8%
Cc1cnc(NC(=O)Nc2cc(Br)c(C)cc2OC[C@@H]2CNCCO2)cn1,percent Bodipy-positive cells,[4],10.7 ± 6.7%
same,percent Bodipy-positive cells,[5],12.8 ± 1.6%
same,percent Bodipy-positive cells,[6],30.7 ± 3.3%
same,percent Bodipy-positive cells,[1],64.7 ± 2.1%
same,percent Bodipy-positive cells,[2],98.8% and 84.6%
N[C@H](C(=O)O)c1ccc(C(=O)O)c(O)c1 [(S)-4-Carboxy-3-hydroxyphenylglycine],percent Bodipy-positive cells,[2],7.87 ± 1.7%
CCCCCCCCCCCC#CC#CC#CC#CC(=O)O [Eicosatetraynoic Acid],percent Bodipy-positive cells,[3],8.82 ± 1.4%
COc1cc2ncnc(Nc3ccc(Cl)cc3Cl)c2cc1OC [Ste11 MAPKKK Activation Inhibitor],percent Bodipy-positive cells,[1],6.71 ± 2%
